# Earlier results, collected in patent EP3696545A1, “METHOD FOR PREDICTING THE RESISTANCE OF MELANOMA TO A TREATMENT WITH A BRAF INHIBITOR” (AnyGenes, priority 2019, dated 2020).
# For at least one compound, name, drawing or mass did not settle the structure.
# Test system: metastatic melanoma
# Details: first-line treatment of metastatic melanoma
compound,measurement,value
CN(C)/N=N/c1[nH]cnc1C(N)=O [Dacarbazine],partial response rate,7.5%
